This is an account of results in article PMC2390528.

Sequences of proteins named here, by UniProt entry; tags and fusion partners are left off.
UniProt Q14974: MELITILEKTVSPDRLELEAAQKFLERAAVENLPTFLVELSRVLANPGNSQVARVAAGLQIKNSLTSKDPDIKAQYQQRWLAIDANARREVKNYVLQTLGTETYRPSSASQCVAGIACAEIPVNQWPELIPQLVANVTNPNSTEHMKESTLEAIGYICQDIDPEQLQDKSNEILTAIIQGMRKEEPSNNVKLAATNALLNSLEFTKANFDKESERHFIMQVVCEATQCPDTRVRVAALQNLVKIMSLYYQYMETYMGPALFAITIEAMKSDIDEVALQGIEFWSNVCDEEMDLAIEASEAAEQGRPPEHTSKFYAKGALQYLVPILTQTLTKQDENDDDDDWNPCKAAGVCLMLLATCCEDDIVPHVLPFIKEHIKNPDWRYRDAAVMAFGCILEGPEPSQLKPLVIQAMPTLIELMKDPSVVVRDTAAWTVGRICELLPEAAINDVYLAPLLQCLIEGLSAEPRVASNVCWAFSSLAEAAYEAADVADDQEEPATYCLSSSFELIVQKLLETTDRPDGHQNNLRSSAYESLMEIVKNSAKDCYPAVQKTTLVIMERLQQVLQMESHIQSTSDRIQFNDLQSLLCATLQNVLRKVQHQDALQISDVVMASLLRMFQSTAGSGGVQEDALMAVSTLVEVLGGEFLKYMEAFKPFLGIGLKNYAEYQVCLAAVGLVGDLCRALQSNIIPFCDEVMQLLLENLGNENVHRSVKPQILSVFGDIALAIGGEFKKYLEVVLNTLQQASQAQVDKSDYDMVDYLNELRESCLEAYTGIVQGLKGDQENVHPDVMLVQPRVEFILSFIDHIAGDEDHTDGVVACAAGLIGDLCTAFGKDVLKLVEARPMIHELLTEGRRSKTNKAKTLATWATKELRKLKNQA
UniProt P14635: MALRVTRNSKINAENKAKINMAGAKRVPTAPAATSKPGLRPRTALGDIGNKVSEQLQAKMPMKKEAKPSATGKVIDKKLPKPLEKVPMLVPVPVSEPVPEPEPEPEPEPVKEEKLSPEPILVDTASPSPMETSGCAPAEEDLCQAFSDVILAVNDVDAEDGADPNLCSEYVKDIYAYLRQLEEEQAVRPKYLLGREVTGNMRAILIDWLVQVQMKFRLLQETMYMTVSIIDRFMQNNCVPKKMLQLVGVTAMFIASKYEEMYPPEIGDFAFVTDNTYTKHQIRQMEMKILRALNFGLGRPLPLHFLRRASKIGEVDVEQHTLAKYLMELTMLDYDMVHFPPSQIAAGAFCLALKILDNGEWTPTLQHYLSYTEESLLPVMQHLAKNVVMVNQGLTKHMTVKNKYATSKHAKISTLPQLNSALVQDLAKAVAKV
UniProt P12520: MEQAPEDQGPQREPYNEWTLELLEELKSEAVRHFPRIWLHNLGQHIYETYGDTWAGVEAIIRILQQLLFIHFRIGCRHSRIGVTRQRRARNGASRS
UniProt P53350: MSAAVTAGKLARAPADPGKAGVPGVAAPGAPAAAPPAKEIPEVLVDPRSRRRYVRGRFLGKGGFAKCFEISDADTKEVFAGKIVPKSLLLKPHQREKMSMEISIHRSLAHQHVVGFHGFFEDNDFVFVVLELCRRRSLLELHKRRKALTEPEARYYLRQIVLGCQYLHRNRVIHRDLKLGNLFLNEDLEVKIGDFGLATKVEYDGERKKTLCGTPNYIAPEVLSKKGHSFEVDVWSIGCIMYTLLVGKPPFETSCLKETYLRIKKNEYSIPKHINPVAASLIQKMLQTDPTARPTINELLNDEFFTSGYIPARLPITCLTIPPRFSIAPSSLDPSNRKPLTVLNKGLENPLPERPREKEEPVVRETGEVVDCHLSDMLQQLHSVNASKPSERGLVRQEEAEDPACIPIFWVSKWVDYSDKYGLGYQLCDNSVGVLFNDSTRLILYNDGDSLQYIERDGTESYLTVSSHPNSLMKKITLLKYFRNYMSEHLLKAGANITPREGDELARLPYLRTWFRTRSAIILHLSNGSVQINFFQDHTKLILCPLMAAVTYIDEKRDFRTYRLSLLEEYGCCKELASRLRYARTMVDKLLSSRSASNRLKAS

Common to all, as to assay: co-IP
Assay [1] concerns the target importin β (human (endogenous in Jurkat)) (UniProt Q14974).
Assay [2] has as its target T1, 14-3-3 θ (human (endogenous in Jurkat)) (UniProt P27348).
T1 sequence: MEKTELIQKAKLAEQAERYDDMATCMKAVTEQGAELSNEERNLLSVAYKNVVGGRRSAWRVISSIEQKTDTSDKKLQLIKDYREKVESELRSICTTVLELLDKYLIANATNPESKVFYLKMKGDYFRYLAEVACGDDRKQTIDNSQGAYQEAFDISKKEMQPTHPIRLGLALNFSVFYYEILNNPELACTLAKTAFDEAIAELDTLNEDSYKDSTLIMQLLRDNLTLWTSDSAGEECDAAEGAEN

Assay [3] deals with T1, 14-3-3 θ (human (endogenous in Jurkat)). This is another data set of the same source.

Where two headings read alike, the source gives them in different places. Results are given in words; binding and its absence hold for the method and conditions named. Binding seen in cells or lysates may run through a third protein. Some binding calls cover weakened binding; strength is not graded here.

Turning to CyclinB1 (from UniProt P14635 1-433), the binding entry in assay [1] and in assay [2] was “binds” throughout.
On to “HIV-1 Vpr (viral protein R), wild type, expressed from the NL4-3 provirus in infected cells (from UniProt P12520 1-96)”, for which the binding entry in assay [2] was “binds”.
For the molecule “Polo-like kinase 1 (from UniProt P53350 1-603)”, the binding result in assay [1] and in assay [2] was “binds” in each case.
As to importin β (from UniProt Q14974 1-876), the binding entry in assay [2] is recorded as “binds”.

B1: Cdc25C phosphorylated on serine-216 (protein, UniProt P30307 1-473)
chain: MSTELFSSTREEGSSGSGPSFRSNQRKMLNLLLERDTSFTVCPDVPRTPVGKFLGDSANLSILSGGTPKRCLDLSNLSSGEITATQLTTSADLDETGHLDSSGLQEVHLAGMNHDQHLMKCSPAQLLCSTPNGLDRGHRKRDAMCSSSANKENDNGNLVDSEMKYLGSPITTVPKLDKNPNLGEDQAEEISDELMEFSLKDQEAKVSRSGLYRSPSMPENLNRPRLKQVEKFKDNTIPDKVKKKYFSGQGKLRKGLCLKKTVSLCDITITQMLEEDSNQGHLIGDFSKVCALPTVSGKHQDLKYVNPETVAALLSGKFQGLIEKFYVIDCRYPYEYLGGHIQGALNLYSQEELFNFFLKKPIVPLDTQKRIIIVFHCEFSSERGPRMCRCLREEDRSLNQYPALYYPELYILKGGYRDFFPEYMELCEPQSYCPMHHQDHKTELLRCRSQSKVQEGERQLREQIALLVKDMSP
For the molecule B1, the binding result in assay [3] is recorded as “binds”.

B2: Cdc25C (protein, UniProt P30307 1-473)
chain: MSTELFSSTREEGSSGSGPSFRSNQRKMLNLLLERDTSFTVCPDVPRTPVGKFLGDSANLSILSGGTPKRCLDLSNLSSGEITATQLTTSADLDETGHLDSSGLQEVHLAGMNHDQHLMKCSPAQLLCSTPNGLDRGHRKRDAMCSSSANKENDNGNLVDSEMKYLGSPITTVPKLDKNPNLGEDQAEEISDELMEFSLKDQEAKVSRSGLYRSPSMPENLNRPRLKQVEKFKDNTIPDKVKKKYFSGQGKLRKGLCLKKTVSLCDITITQMLEEDSNQGHLIGDFSKVCALPTVSGKHQDLKYVNPETVAALLSGKFQGLIEKFYVIDCRYPYEYLGGHIQGALNLYSQEELFNFFLKKPIVPLDTQKRIIIVFHCEFSSERGPRMCRCLREEDRSLNQYPALYYPELYILKGGYRDFFPEYMELCEPQSYCPMHHQDHKTELLRCRSQSKVQEGERQLREQIALLVKDMSP
For the molecule B2, the binding entry in assay [3] is “binds”.
